Test results reported in PubChem BioAssay AID493014 (National Center for Advancing Translational Sciences (NCATS), 2011).
This is one part of the list. Shown are side measurements of this screen, not its main read-out; they come without a call. The list favours compounds with an active or inconclusive main result. Words in brackets tell the shape of the fitted curve; partial curves, single points and poor fits give uncertain potencies.

Assay: qHTS Assay to Find Inhibitors of Chronic Active B-Cell Receptor Signaling
Conditions: ABC-DLBCL IkBa-CBG/CBR reporter, luminescence ratio (green luciferase fused to IkBa over red control in TMD8 lymphoma cells), 4 h
Summary of the method: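 Compounds up to 46 uM were incubated four hours with TMD8 cells whose green CBG68 luciferase is fused to IkappaBalpha; red CBR luminescence normalised the signal, and concentration-effect curves were fitted to fusion, red and ratio data.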

[1] = measured here: CBR red luminescence, cell number
[2] = measured here: IkBa-CBG green luminescence

| SMILES | AC50 [1] | AC50 [2] |
| --- | --- | --- |
| Cc1ccc(/C=C2\SC(=S)N(CCC(=O)NNC(=O)c3ccccc3O)C2=O)cc1 | 12.6 µM [falling, partial curve] |  |
| CCOC(=O)CSc1nc2c(sc3ccccc32)c(=O)n1CCO | 14.1 µM [falling, partial curve, poor fit] |  |
| C#CCOCCOCCOCCNc1nc(N2CCN(C(=O)CCCCCCCCCCNC(=O)[C@@H](CCSC)n3cc(CCO)nn3)CC2)nc(N2CCN(C(=O)CCCCCCCCCCNC(=O)[C@H](CO)n3cc(CCCCCN)nn3)CC2)n1 | 20.6 µM [rising, single point] | 18.4 µM [falling, partial curve, poor fit] |
| CCCN(CCC)CCCNC(=O)c1cn(CC)c2ccc(S(=O)(=O)N3CCOCC3)cc2c1=O | 3.16 µM [falling, single point] |  |
| CC(=O)Nc1ccc(NC(=O)C(C)c2cccc(C(=O)c3ccccc3)c2)cc1 (centres undefined) | 29.1 µM [falling, partial curve, poor fit] |  |
| Cc1ccccc1NC(=O)COc1coc(CN2CCCc3ccccc32)cc1=O | 0.58 µM [rising, full curve, poor fit] |  |
| CSc1ccc(C(=O)C2CCCN(C(=O)c3cccc(N4CCOCC4)c3)C2)cc1 (centres undefined) | 35.5 µM [falling, single point] |  |
| c1c2c(cc3sc(N4CCOCC4)nc13)OCO2 | 12.6 µM [falling, single point] |  |
| O=C(Nc1ccc2c(c1)CCCN2C(=O)c1cccs1)c1c(F)cccc1Cl | 15.8 µM [falling, single point] |  |
| COc1ccccc1OCC(=O)NNc1c2ccccc2nc2ccccc12 | 22.4 µM [falling, single point] |  |
| CCOC(=O)C1=NN(C(=O)c2cccc(Br)c2)C(O)(C(C)(C)C)C1 (centres undefined) | 8.91 µM [falling, partial curve] |  |
| Cc1cccc(NC(=O)c2ccc(C3SCC(=O)N3CCc3ccccc3)cc2)c1 (centres undefined) | 29.1 µM [falling, single point] | 25.9 µM [rising, partial curve, poor fit] |
| CC(C)(C)CNc1cc(N2CCOCC2)ccc1[N+](=O)[O-] | 28.2 µM [falling, single point] |  |
| O=[N+]([O-])c1ccc(Nc2ccc(N3CCOCC3)cc2)c([N+](=O)[O-])c1 | 20 µM [rising, single point] |  |
| Cc1ccc(NC(=O)CC2S/C(=N/N=C3\CCCc4ccccc43)NC2=O)cc1 (centres undefined) | 29.1 µM [falling, single point] |  |
| C/C=C/c1ccc(OCCCCOc2ccccc2C(C)=O)c(OC)c1 | 29.1 µM [rising, single point] |  |
| Cc1ccc(S(=O)(=O)N2CCCCC2)cc1NC(=O)C1=NN(c2ccccc2)C(=O)CC1 | 29.1 µM [rising, single point] |  |
| OCC1(Cc2cccc(Cl)c2)CCCN(Cc2cn[nH]c2C2CCCCC2)C1 (centres undefined) | 35.5 µM [falling, single point] |  |
| O=C(Nc1nc2c(F)cc(F)cc2s1)C1CC(=O)N(Cc2ccco2)C1 (centres undefined) | 22.4 µM [falling, single point] |  |
| CCN(Cc1ccccc1)S(=O)(=O)c1ccc(C(=O)Nc2nnc(-c3ccccc3OC)o2)cc1 | 4.61 µM [falling, full curve] |  |
| Cc1ccc(NC(=O)c2cc(S(=O)(=O)NCCc3ccc(Cl)cc3)ccc2F)cc1 | 7.94 µM [falling, partial curve] |  |

| SMILES | AC50 [1] | AC50 [2] |
| --- | --- | --- |
| Cc1cc2cc(CNS(=O)(=O)N(C)C)ccc2[nH]1 | 23.1 µM [rising, single point] |  |
| C/C=C/C(=O)N1CC2(CC(c3cccc(NC(=O)/C(C)=C/C)c3)=NO2)C[C@H]1C(N)=O (some centres undefined) | 35.5 µM [rising, single point] |  |
| Cc1ccccc1NC(=O)CCCSc1nc2ccccc2s1 | 29.1 µM [falling, single point] | 1.46 µM [rising, full curve, poor fit] |
| N#CCC(=O)N/N=C/c1cc([N+](=O)[O-])ccc1N1CCCC1 | 35.5 µM [rising, single point] |  |
| CCn1c(SCC(=O)Nc2ccc(C(C)=O)cc2)nc2nc3c(cc2c1=O)CCCC3 | 20.6 µM [rising, partial curve, poor fit] |  |
| CCOC(=O)Cc1nnc(NC(=O)c2ccccc2OC)s1 | 5.62 µM [rising, single point] |  |
| O=C(NCCN1CCCC1)C1CCN(S(=O)(=O)N2CCC3(CC2)OCCO3)CC1 | 29.1 µM [rising, single point] |  |
| Cc1onc(C(=O)NN)c1-c1csc(COc2ccc(Cl)cc2)n1 | 1.41 µM [rising, partial curve] |  |
| CC(=O)Nc1ccc(C(=O)COC(=O)c2cccs2)c(F)c1 | 10.3 µM [rising, single point] |  |
| COc1ccccc1/C=c1\sc2nc(-c3ccccc3OC)nn2c1=O | 0.794 µM [falling, full curve, poor fit] |  |
| Brc1ccc(-c2csc(-c3c[nH]c4ccccc34)n2)cc1 | 0.316 µM [rising, full curve, poor fit] |  |
| CCn1c2ccccc2c2cc(NC(=O)C(=O)NCC3CCCO3)ccc21 (centres undefined) | 3.98 µM [rising, single point] |  |
| CCNC(=S)/N=C(\N)Nc1nc(C)c2cc(C)ccc2n1 | 14.1 µM [falling, partial curve] |  |
| CC1=NN(C(=O)c2ccccc2Br)C(O)(c2cccnc2)C1 (centres undefined) | 35.5 µM [falling, single point] |  |
| COc1ccc(-n2c(=S)[nH]c3cc(C(=O)NCCCN4CCCC4=O)ccc3c2=O)cc1 | 0.501 µM [falling, full curve, poor fit] |  |
| CCN(C(=O)COC(=O)c1cccn1C)C1CCS(=O)(=O)C1 (centres undefined) | 14.1 µM [falling, partial curve, poor fit] |  |
| Nc1[nH]nc2c1NN(c1ccc(Cl)cc1Cl)N2 | 6.51 µM [rising, single point] |  |
| CCOC(=O)c1c(-c2ccccc2)nc2cc(C)ccn12 | 17.8 µM [rising, partial curve, poor fit] |  |
| NS(=O)(=O)c1ccc2nc(NC(=O)c3ccc(Br)o3)sc2c1 | 8.91 µM [falling, partial curve] |  |
| On1c2c(c3c4nonc4ccc31)CCCC2 |  | 23.1 µM [rising, partial curve, poor fit] |
| COc1ccc(NC(=O)COC(=O)c2ccc(C)c(S(=O)(=O)N3CCCCC3)c2)cc1 | 0.00461 µM [rising, full curve, poor fit] |  |

Reformatted in CSV form: part of the list above.
SMILES,AC50 [1],AC50 [2]
CCNC(=S)/N=C(\N)Nc1nc(C)c2cc(C)ccc2n1,"14.1 µM [falling, partial curve]",
CC1=NN(C(=O)c2ccccc2Br)C(O)(c2cccnc2)C1 (centres undefined),"35.5 µM [falling, single point]",
COc1ccc(-n2c(=S)[nH]c3cc(C(=O)NCCCN4CCCC4=O)ccc3c2=O)cc1,"0.501 µM [falling, full curve, poor fit]",
CCN(C(=O)COC(=O)c1cccn1C)C1CCS(=O)(=O)C1 (centres undefined),"14.1 µM [falling, partial curve, poor fit]",
Nc1[nH]nc2c1NN(c1ccc(Cl)cc1Cl)N2,"6.51 µM [rising, single point]",

More structures follow.

| SMILES | AC50 [1] | AC50 [2] |
| --- | --- | --- |
| Cc1ccc(NC(=O)C2OCCc3ccccc32)cc1Cl (centres undefined) | 0.112 µM [rising, full curve, poor fit] |  |
| COc1ccc2nc(N(Cc3cccnc3)C(=O)Cc3ccccc3)sc2c1 | 35.5 µM [falling, single point] |  |
| O=C(COc1ccccc1Cc1ccccc1)Nc1cccc(S(=O)(=O)N2CCOCC2)c1 | 11.6 µM [falling, partial curve, poor fit] |  |
| CCOC(=O)N1CCC(NC(=O)c2cnn3c(C(F)(F)F)cc(-c4cccc(OC)c4)nc23)CC1 | 11.2 µM [rising, partial curve, poor fit] |  |
| COCC(C)NC(=O)/C=C/c1ccc(OC)cc1 (centres undefined) | 25.1 µM [falling, single point] |  |
| O=C(N/N=C/c1cc([N+](=O)[O-])ccc1O)Nc1ccccc1 | 4.47 µM [falling, partial curve, poor fit] |  |
| COc1ccc(S(=O)(=O)N(C)c2ccc(C(=O)NCc3ccco3)cc2)cc1OC | 3.55 µM [rising, full curve] |  |
| CCN(CC)c1ccc(NC(=O)c2ccc(NC(=O)C3CCCO3)cc2)c(C)c1 (centres undefined) | 20.6 µM [rising, single point] |  |
| CCOC(=O)c1nnn(-c2nonc2-n2cccc2)c1-c1cccc([N+](=O)[O-])c1 | 35.5 µM [falling, single point] |  |
| CCCCN(CCCC)c1nc2ccccc2nc1NS(=O)(=O)c1ccc(NC(C)=O)cc1 | 5.8 µM [rising, full curve, poor fit] |  |
| O=C(Nc1cc(C(F)(F)F)ccc1N1CCCC1)c1ccc2c(c1)OCO2 | 6.51 µM [rising, partial curve] |  |
| COc1ccc(C(=O)O/N=C(/c2ccccc2)c2ccncc2)cc1OC | 11.2 µM [falling, partial curve] |  |
| NC(=O)COC(=O)c1ccccc1SCC(=O)NC1CCCCCC1 | 15.8 µM [falling, partial curve, poor fit] |  |
| C=CCC[C@@H](Cc1ccc(F)cc1)C(=O)OC[C@H]1CCCN1C(=O)[C@@H](CC=C)CC(=O)N[C@H](CO)Cc1ccccc1 | 18.4 µM [falling, partial curve, poor fit] |  |
| CCOc1ncccc1C(=O)OC(C)C(=O)NC(=O)NC1CCCCC1 (centres undefined) | 0.251 µM [falling, full curve, poor fit] |  |
| O=C(COC(=O)c1ccco1)NCc1ccc2c(c1)OCO2 | 35.5 µM [rising, partial curve, poor fit] |  |
| COc1ccc(/C=C2\Oc3cc(OCC(=O)N4CCC[C@H]4CO)ccc3C2=O)c(OC)c1 | 35.5 µM [falling, single point] |  |
| CCN1c2ccccc2-c2nc3ccccc3n2C1c1ccccn1 (centres undefined) | 20 µM [falling, partial curve, poor fit] |  |
| Cc1nn(-c2ccccc2)c(C)c1NC(=O)COC(=O)CCCOc1ccccc1 | 4.61 µM [falling, partial curve, poor fit] |  |
